Consider 1 substance from paper PMC4227870.

Amino acid sequences for entries named in this document (tags omitted). A change or cut given only in a name is not applied to a line headed by its entry. Residues count along the entry.
UniProt P17948, residues 27-785: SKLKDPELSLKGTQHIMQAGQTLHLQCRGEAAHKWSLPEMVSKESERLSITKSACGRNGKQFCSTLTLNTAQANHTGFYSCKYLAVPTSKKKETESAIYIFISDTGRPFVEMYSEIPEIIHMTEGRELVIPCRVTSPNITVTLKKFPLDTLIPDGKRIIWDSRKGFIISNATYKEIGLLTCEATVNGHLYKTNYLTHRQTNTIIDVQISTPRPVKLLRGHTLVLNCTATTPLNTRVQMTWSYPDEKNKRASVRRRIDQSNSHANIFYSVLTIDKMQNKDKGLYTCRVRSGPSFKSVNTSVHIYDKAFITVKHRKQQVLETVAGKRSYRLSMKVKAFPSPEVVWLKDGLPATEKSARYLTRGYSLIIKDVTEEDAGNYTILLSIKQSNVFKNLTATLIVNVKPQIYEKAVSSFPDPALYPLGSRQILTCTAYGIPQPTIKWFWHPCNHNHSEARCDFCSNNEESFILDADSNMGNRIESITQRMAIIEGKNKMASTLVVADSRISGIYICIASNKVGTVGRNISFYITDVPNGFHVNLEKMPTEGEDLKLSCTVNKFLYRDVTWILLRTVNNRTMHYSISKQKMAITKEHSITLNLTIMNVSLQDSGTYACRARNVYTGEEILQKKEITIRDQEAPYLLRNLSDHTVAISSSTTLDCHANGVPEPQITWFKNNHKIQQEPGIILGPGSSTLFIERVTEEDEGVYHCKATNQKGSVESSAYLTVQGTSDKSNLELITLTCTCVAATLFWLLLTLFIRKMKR
UniProt P35968, residues 20-1356: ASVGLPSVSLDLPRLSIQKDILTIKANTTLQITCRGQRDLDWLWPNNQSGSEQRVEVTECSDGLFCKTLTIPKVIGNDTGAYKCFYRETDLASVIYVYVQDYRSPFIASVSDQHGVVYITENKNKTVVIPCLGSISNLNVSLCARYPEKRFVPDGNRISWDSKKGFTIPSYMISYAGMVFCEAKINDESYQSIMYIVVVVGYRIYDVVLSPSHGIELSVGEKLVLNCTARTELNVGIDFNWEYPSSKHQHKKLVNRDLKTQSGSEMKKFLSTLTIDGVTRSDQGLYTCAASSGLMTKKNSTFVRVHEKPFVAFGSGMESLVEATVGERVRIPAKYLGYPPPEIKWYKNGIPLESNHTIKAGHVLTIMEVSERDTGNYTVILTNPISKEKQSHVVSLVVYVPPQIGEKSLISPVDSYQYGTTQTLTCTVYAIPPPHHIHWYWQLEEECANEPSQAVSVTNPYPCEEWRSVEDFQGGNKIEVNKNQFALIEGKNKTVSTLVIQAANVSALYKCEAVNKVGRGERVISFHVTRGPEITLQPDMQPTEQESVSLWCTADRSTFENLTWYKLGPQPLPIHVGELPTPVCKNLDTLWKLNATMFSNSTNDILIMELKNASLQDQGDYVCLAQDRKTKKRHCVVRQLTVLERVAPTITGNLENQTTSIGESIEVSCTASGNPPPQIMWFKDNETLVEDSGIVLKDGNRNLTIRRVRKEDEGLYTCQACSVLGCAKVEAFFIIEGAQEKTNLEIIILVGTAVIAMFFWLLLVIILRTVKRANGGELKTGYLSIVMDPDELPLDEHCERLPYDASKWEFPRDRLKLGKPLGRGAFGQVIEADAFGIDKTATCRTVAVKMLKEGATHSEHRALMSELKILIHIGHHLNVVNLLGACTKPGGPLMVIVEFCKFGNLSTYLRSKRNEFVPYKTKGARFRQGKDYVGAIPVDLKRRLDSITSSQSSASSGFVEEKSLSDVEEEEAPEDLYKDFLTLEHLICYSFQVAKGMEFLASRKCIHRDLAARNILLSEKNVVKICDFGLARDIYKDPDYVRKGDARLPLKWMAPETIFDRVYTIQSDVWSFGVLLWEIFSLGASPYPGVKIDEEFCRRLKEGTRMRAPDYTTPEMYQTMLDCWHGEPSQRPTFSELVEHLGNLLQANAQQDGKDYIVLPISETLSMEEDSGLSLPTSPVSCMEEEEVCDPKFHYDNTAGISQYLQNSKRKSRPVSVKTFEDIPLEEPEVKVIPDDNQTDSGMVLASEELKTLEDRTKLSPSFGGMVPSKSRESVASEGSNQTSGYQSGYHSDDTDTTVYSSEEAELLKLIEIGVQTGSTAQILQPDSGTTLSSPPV

Results are given in words; binding and its absence hold for the method and conditions named. In cells and extracts the contact can be indirect. Some results given as binding are weak or reduced against the parent protein; the word gives no strength.

The target of the assay is Flt1 ΔCTD (deleted C-terminal domain, epitope tagged) (UniProt P17948). The experiment in a line: co-IP; 1 mg lysate (150 mM NaCl, 50 mM Tris pH 7.4, 1% Triton X-100) of HEK293 cells co-transfected with Flt1 ΔCTD and VEGFR2 or control plasmid, treated with 30 nM PMA with or without 10 U/ml heparin overnight; precipitated with ANTI-FLAG M2 affinity gel, immunoblotted for VEGFR2 (Flk1). A general note: A western blot detects proteins with antibodies after separation by electrophoresis.

As to “VEGFR2 (C-terminal GFP-tagged full length human VEGFR2) (from UniProt P35968 20-1356) (receptor)”, the binding result was “binds”.
